These are yes or no findings as the source states them, for the method shown. Binding seen in cells or lysates may run through a third protein. Some entries that bind do so weakly or less than the wild type. Sequences can lack the tags named with a protein.
Target: T1, Eros (essential for reactive oxygen species), N-terminally FLAG-tagged (mouse) (UniProt Q3TYS2)
T1 sequence: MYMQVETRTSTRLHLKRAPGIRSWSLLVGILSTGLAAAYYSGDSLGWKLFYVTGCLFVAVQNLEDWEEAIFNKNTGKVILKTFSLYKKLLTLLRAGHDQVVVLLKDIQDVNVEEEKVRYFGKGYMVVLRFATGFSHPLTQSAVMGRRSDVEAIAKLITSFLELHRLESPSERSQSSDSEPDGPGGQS
Experiment: co-IP; RAW macrophages expressing Eros-FLAG lysed in 0.1% NP-40, 150 mM NaCl; extracts incubated with anti-FLAG M2 coupled to Protein G magnetic beads, 90 min, 4°C; control antibody in parallel; blot for gp91phox

binding: binds
B1: gp91phox (protein, UniProt Q61093 1-570)
chain: MGNWAVNEGLSIFVILVWLGLNVFLFINYYKVYDDGPKYNYTRKLLGSALALARAPAACLNFNCMLILLPVCRNLLSFLRGSSACCSTRIRRQLDRNLTFHKMVAWMIALHTAIHTIAHLFNVEWCVNARVGISDRYSIALSDIGDNENEEYLNFAREKIKNPEGGLYVAVTRLAGITGIVITLCLILIITSSTKTIRRSYFEVFWYTHHLFVIFFIGLAIHGAERIVRGQTAESLEEHNLDICADKIEEWGKIKECPVPKFAGNPPMTWKWIVGPMFLYLCERLVRFWRSQQKVVITKVVTHPFKTIELQMKKKGFKMEVGQYIFVKCPKVSKLEWHPFTLTSAPEEDFFSIHIRIVGDWTEGLFNACGCDKQEFQDAWKLPKIAVDGPFGTASEDVFSYEVVMLVGAGIGVTPFASILKSVWYKYCDNATSLKLKKIYFYWLCRDTHAFEWFADLLQLLETQMQERNNANFLSYNIYLTGWDESQANHFAVHHDEEKDVITGLKQKTLYGRPNWDNEFKTIASEHPNTTIGVFLCGPEALAETLSKQSISNSESGPRGVHFIFNKENF

Source: publication PMC5379978
